# These are yes or no findings as the source states them, for the method shown. In cells and extracts the contact can be indirect. Some results given as binding are weak or reduced against the parent protein; the word gives no strength. Tags and fused reporters may be left off the sequences shown.
# Chains of the proteins cited; added tags and fusions are not shown.
# UniProt P03430: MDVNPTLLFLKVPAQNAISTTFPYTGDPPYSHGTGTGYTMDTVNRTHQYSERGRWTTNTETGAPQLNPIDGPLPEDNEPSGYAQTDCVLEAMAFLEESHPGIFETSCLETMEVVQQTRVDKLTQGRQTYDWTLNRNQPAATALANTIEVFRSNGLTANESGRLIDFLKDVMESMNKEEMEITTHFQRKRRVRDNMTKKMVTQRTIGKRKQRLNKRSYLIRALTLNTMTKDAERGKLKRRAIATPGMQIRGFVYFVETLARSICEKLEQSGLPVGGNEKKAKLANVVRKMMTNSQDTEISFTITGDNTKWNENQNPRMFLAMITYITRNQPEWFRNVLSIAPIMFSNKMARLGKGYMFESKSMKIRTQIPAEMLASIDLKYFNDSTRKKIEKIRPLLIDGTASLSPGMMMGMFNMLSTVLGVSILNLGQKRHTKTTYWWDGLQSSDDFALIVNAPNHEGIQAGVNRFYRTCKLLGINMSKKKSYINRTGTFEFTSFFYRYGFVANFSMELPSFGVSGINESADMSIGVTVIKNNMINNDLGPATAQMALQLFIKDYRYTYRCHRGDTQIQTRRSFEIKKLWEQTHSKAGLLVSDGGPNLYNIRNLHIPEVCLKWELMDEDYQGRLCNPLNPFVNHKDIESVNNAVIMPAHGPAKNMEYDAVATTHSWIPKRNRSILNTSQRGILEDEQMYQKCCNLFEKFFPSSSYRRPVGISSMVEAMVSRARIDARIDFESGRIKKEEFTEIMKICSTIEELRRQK
# Molecular target: T1, FLAG–14-3-3η (UniProt Q04917)
# T1 sequence: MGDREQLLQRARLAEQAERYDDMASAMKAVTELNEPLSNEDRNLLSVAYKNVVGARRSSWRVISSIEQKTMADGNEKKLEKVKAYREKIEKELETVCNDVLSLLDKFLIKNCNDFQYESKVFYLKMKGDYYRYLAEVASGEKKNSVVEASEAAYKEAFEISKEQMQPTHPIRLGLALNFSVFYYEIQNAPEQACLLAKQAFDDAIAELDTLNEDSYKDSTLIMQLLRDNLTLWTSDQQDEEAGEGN
# Assay: co-IP
substance,measurement,value
"PB1 protein of influenza A virus WSN/33 (H1N1), from infection (from UniProt P03430 1-757)",binding,binds

# Source: article PMC12568185
